Data published in patent US11666558B2, “Methods of treating intraocular pressure with activators of Tie-2” (EyePoint Pharmaceuticals, Inc., priority 2015, dated 2023).
“And” between values parts separate entries of the source, which are not always exact repeats. Identical values can stand only once. The source gives many values for each of these; only a part stands here.

Experiment: Ocular tissue concentrations (aqueous humor, vitreous humor, iris, retina, choroid, cornea) after topical ocular, subcutaneous and intravitreal administration
Format: in vivo, New Zealand White rabbits
Settings: for Choroid Conc. (ng/mL) OD / Choroid Conc. (ng/mL) OS / Conc. (ng/mL) OS / Conc. (ng/mL) OD: Choroid homogenate; for Conc. (ng/mL) OS / Conc. (ng/g) OS: left eye; for Conc. (ng/mL) OS / Conc. (ng/mL) OD / Conc. (ng/g) OS / Conc. (ng/g) OD: intravitreal 2.5 mg/eye (group 5), individual animals; for Conc. (ng/mL) OD / Conc. (ng/g) OD: right eye; for Choroid Conc. (ng/g) OD / Choroid Conc. (ng/g) OS / Conc. (ng/g) OS / Conc. (ng/g) OD: Choroid
Experimental: To measure the concentration of Compound 1 in plasma and ocular tissues following topical ocular, subcutaneous, and intravitreal administration, New Zealand White rabbits were administered Compound 1, and plasma and ocular samples were collected at pre-determined time points. Compound 1 formulations were prepared fresh on each day of dosing.
Ocular tissue samples from both eyes of each animal were collected and weights were recorded. Plasma and ocular tissue sample concentrations of Compound 1 were determined by LC-MS/MS.
New Zealand White rabbits weighing 2.5 to 3.5 kg were used on this study. Rabbits were housed one per cage. Animals were not fasted and only healthy animals with no ocular illness were used. Two rabbits per group were sacrificed at each of four ocular tissue sampling time points for a total of eight rabbits per group.
Animals were anesthetized for ocular (topical) and intravitreal dosing following the 12IA7 IACUC protocol. Each rabbit received a bolus dose of test formulation either via topical ocular administration 3 times daily on Days 1 and 2 (at 0, 6, and 12 hours), and once on Day 3 (at 0 hours) into both eyes; via intravitreal administration into both eyes once on Day 1 (at 0 hours); or via subcutaneous administration 2 times daily on Days 1 and 2 (at 0 and 8 hours) and once daily on Day 3 (at 0 hours). Doses were given within an approximately 1 hour window each day where applicable.
On Day 1, for intravitreal administration, or on Day 3, for topical ocular and subcutaneous administration, at the appropriate ocular tissue collection time points, animals were euthanized and both eyes were enucleated immediately. Following enucleation, each eye was rinsed with phosphate-buffered saline. Ocular tissue samples from both eyes of each animal were collected at predetermined time points and weights were recorded. All the samples were frozen immediately on dry ice, and stored at −60° C. to −80° C. pending bioanalysis.
An LC-MS/MS method was developed for the determination of Compound 1 in rabbit aqueous tissues (plasma, aqueous and vitreous humor) and solid ocular tissue samples. A pre-study standard curve was analyzed to determine the specificity, range, and lower limit of quantitation of the method. Plasma and tissue homogenate study samples were extracted and analyzed. All the samples were treated identically to the standards.
One eight-point standard curve was used in each analytical batch. To be accepted, each batch must have had at least five of eight standards with accuracy within ±20% of nominal, except at the lower limit of quantification (LLOQ), where ±25% was acceptable.
Concentration versus time data is plotted in FIGS. 3-16. All data are expressed as ng/g of the free drug. Samples that were below the limit of quantitation (0.2 ng/mL) were not used in the calculation of averages.

[1] = 0.5 hr, OD, sodium salt, subcutaneous 5 mg/kg/dose, Group 2
[2] = 0.5 hr, OS, free acid, subcutaneous 5 mg/kg/dose, Group 3
[3] = 0.5 hr, OS, sodium salt, subcutaneous 5 mg/kg/dose, Group 2
[4] = 1 hr, OD, free acid, subcutaneous 5 mg/kg/dose, Group 3
[5] = 1 hr, OD, sodium salt, subcutaneous 5 mg/kg/dose, Group 2
[6] = 1 hr, OS, free acid, subcutaneous 5 mg/kg/dose, Group 3
[7] = 1 hr, OS, sodium salt, subcutaneous 5 mg/kg/dose, Group 2
[8] = 2 hr, OD, free acid, subcutaneous 5 mg/kg/dose, Group 3
[9] = 2 hr, OS, free acid, subcutaneous 5 mg/kg/dose, Group 3
[10] = 4 hr, OD, free acid, subcutaneous 5 mg/kg/dose, Group 3
[11] = 4 hr, OD, sodium salt, subcutaneous 5 mg/kg/dose, Group 2
[12] = 24 hr, OD, sodium salt, intravitreal 2.5 mg/eye, Group 4
[13] = 24 hr, OS, sodium salt, intravitreal 2.5 mg/eye, Group 4
[14] = 48 hr, OD, sodium salt, intravitreal 2.5 mg/eye, Group 4
[15] = 48 hr, OS, sodium salt, intravitreal 2.5 mg/eye, Group 4
[16] = 72 hr, OS, sodium salt, intravitreal 2.5 mg/eye, Group 4

COC(=O)N[C@@H](Cc1ccccc1)C(=O)N[C@@H](Cc1ccc(NS(=O)(=O)O)cc1)c1csc(-c2cccs2)n1 [Compound 1]
Choroid Conc. (ng/mL) OD [1]: 25.6 ng/mL
Choroid Conc. (ng/mL) OS [2]: 14.0 ng/mL
Choroid Conc. (ng/mL) OS [3]: 21.4 ng/mL
Choroid Conc. (ng/mL) OD [4]: 8.65 ng/mL
Choroid Conc. (ng/mL) OD [5]: 19.2 ng/mL
Choroid Conc. (ng/mL) OS [6]: 7.60 ng/mL
Choroid Conc. (ng/mL) OS [7]: 11.4 ng/mL
Choroid Conc. (ng/mL) OD [8]: 4.26 ng/mL
Choroid Conc. (ng/mL) OS [9]: 4.94 ng/mL
Choroid Conc. (ng/mL) OD [10]: 4.65 ng/mL
Choroid Conc. (ng/mL) OD [11]: 1.50 ng/mL
Conc. (ng/mL) OS (6.0 hr): 69700 ng/mL
Conc. (ng/mL) OD (6.0 hr): 32800 ng/mL and 75400 ng/mL
Choroid Conc. (ng/mL) OD [12]: 18400 ng/mL
Choroid Conc. (ng/mL) OS [13]: 10400 ng/mL
Conc. (ng/mL) OS (24 hr): 43500 ng/mL
Conc. (ng/mL) OD (24 hr): 15200 ng/mL and 57500 ng/mL
Choroid Conc. (ng/mL) OD [14]: 4040 ng/mL
Choroid Conc. (ng/mL) OS [15]: 2790 ng/mL
Conc. (ng/mL) OS (48 hr): 14800 ng/mL
Conc. (ng/mL) OD (48 hr): 9580 ng/mL
Choroid Conc. (ng/mL) OS [16]: 290 ng/mL
Conc. (ng/mL) OS (72 hr): 2910 ng/mL
Conc. (ng/mL) OD (72 hr): 2270 ng/mL
Choroid Conc. (ng/g) OD [1]: 282 ng/g
Choroid Conc. (ng/g) OS [2]: 154 ng/g
Choroid Conc. (ng/g) OS [3]: 235 ng/g
Choroid Conc. (ng/g) OD [4]: 95.2 ng/g
Choroid Conc. (ng/g) OD [5]: 211 ng/g
Choroid Conc. (ng/g) OS [6]: 83.6 ng/g
Choroid Conc. (ng/g) OS [7]: 125 ng/g
Choroid Conc. (ng/g) OD [8]: 46.9 ng/g
Choroid Conc. (ng/g) OS [9]: 54.3 ng/g
Choroid Conc. (ng/g) OD [10]: 51.2 ng/g
Choroid Conc. (ng/g) OD [11]: 16.5 ng/g
Conc. (ng/g) OS (6.0 hr): 766700 ng/g
Conc. (ng/g) OD (6.0 hr): 360800 ng/g and 829400 ng/g
Choroid Conc. (ng/g) OD [12]: 202400 ng/g
Choroid Conc. (ng/g) OS [13]: 114400 ng/g
Conc. (ng/g) OS (24 hr): 478500 ng/g
Conc. (ng/g) OD (24 hr): 167200 ng/g and 632500 ng/g
Choroid Conc. (ng/g) OD [14]: 44440 ng/g
Choroid Conc. (ng/g) OS [15]: 30690 ng/g
Conc. (ng/g) OD (48 hr): 105380 ng/g
Choroid Conc. (ng/g) OS [16]: 3190 ng/g
Conc. (ng/g) OS (72 hr): 32010 ng/g
Conc. (ng/g) OD (72 hr): 24970 ng/g
Cornea Conc. (ng/mL) OS (Cornea homogenate, 0.5 hr, OS, sodium salt, subcutaneous 5 mg/kg/dose, Group 2): 1.94 ng/mL
Cornea Conc. (ng/mL) OD (Cornea homogenate, 1 hr, OD, sodium salt, subcutaneous 5 mg/kg/dose, Group 2): 2.13 ng/mL
